Among all 52,000 sequences or so, about 210 (0.4%) were called active.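 How the source made its calls: active means gene whose silencing raises cell survival under the drug, median off-target-corrected z-score across its silencing RNAs 2 or more; inactive means the rest.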 The list shows a part of the results.

Consider 65 sequences from PubChem BioAssay AID1347423 (Functional Genomics Laboratory (NCATS/FGL), 2020).

A short description of the experiment: Resistance to Poly (ADP-Ribose) Polymerase inhibitor: Gene Identification via Genome-wide siRNA Screen. To be noted: mouse BRCA2 R2336H ES cells, olaparib, CellTiter-Glo viability; stronger effect = higher value. An outline of the steps: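 Mouse BRCA2 R2336H ES cells were reverse-transfected with siRNA (20 nM final), treated at 48 h with 500 nM olaparib, and read by CellTiter-Glo after 72 h. Scores: MAD-based z per siRNA, median per gene, seed off-target correction.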
Regarding GCAAAAAUUGAAGUCAGUGTT against Serpine2, the z-score is inactive: -0.657.

With GCCCAACAUCUGAACAUGCTT against Olfr738, the z-score was inactive: 0.316.

For GCCCUACGAUACAGCUUCATT against Psmd7, the z-score was inactive: -1.93.

For the sequence GUCCAUAAGCGUACAAUUCTT against Olfr410, the z-score is inactive: -1.71.

With “GGAGCUAAUAAACUGACCUTT against 2610528K11Rik”, the z-score was inactive: 0.547.

For the sequence “GCGAGUUAUUUGGCUCCGATT against 2310026J01Rik”, the z-score was inactive: -0.997.

GCUUCGUGAGCAGUAUCUATT against Mcpt6: the z-score is inactive: -1.09.

With “GGAGGGAGCAGAUUGAAACTT against 4933424N09Rik”, the z-score is inactive: 0.199.

On to “GGUGUUUUUAUGUGAACUUTT against 9330120H11Rik”, for which the z-score was inactive: -1.01.

In the case of GGGAUUUGUUAUGUCUGUATT against Sfrs7, the z-score was inactive: -2.16.

“GGAGCUCAGCAUUAUGUAGTT against 2610017G09Rik”: the z-score was inactive: -1.36.

Turning to GGAUGAGAAUCUUCAGGUUTT against Mtmr3, the z-score was inactive: 0.0945.

In the case of “CCAAGUAUUACGGAACAUCTT against 4921506M07Rik”, the z-score is inactive: -0.789.

Turning to “GGAACUUCGACUCUGAGAUTT against 0610039K22Rik”, the z-score is inactive: -0.17.

Take GGCAGGAAACCAACAAAGATT against Bmp8b: the z-score was inactive: -0.486.

With “GCUUAGACACAUCAAGAGATT against 2310026E23Rik”, the z-score is inactive: 0.473.

GGUGUUUAUCCUAAUAAACTT against Sox12: the z-score is inactive: 2.38.

Consider GGUUUUUUGGUACCAAGUGTT against Unc93b, for which the z-score was inactive: -1.93.

For GGAGACUUAGAAAAAGACUTT against Olfr1426, the z-score was inactive: 0.919.

Turning to GCAGACCGGAUACUGAACATT against Ddx47, the z-score is inactive: -2.97.

As for CCCAGGAACAAUAAAGAGGTT against Twist2, the z-score was inactive: 1.29.

As to CCAGGUAGAGCAAUUUCUATT against BC034099, the z-score was inactive: 0.452.

UCAACUCUUGACUUCGCUGTT against Usmg1: the z-score was inactive: 0.468.

UGGUGGAUAUAGGAUUCUUTT against Clm6: the z-score was inactive: 1.35.

In the case of GCAAGUCUUAAAGCUCUAGTT against Olfr601, the z-score was inactive: 0.224.

Consider CCACAGUAUCUAAAAAGAGTT against Ubc, for which the z-score was inactive: -2.35.

For GGACUUCAGACAAUCAAAATT against Gbp5, the z-score is inactive: 0.153.

For the sequence GGAGAAAGGAAAAUAAGAGTT against Npy6r, the z-score was inactive: 0.392.

As to GCCAGAACCGCAUAUUCUUTT against Cks2, the z-score was inactive: 1.08.

Turning to “GGAAAAACAAUUGAGCAUGTT against 3830421F13Rik”, the z-score was inactive: 0.885.

“GGCACAGCUUGCUGAAGCUTT against 1110019I14Rik”: the z-score was inactive: -1.72.

In the case of “CCUACAUGACCACAGAGUUTT against 2900006K08Rik”, the z-score was inactive: -0.119.

Turning to “CCUGACACCUAACUUUAAATT against C230013L11Rik”, the z-score is inactive: -0.499.

With GGAAGUGUACCUCAACAGCTT against Lrig1, the z-score was inactive: 1.08.

Consider GGAAGAGCUCAACAUCAUUTT against Cnnm1, for which the z-score was inactive: -1.16.

Turning to “CCAUCACCUCUUUGGAACUTT against 1110003A17Rik”, the z-score was inactive: -0.648.

For “GUCUAUCGAUAUUCCAAAATT against D130007C19Rik”, the z-score is inactive: -0.816.

Regarding GGUGAUGAAAAAGGACAGCTT against Oit1, the z-score was inactive: -0.44.

As for “GGCAGCAUUAAAACUUAAGTT against 2500003M10Rik”, the z-score is inactive: -0.943.

For “GCUGACUCAUCCAAGAACUTT against 1110014F24Rik”, the z-score was inactive: 0.0873.

Turning to CCUGCUAAGAGAGUACUAUTT against Pglyrp2, the z-score was inactive: -1.93.

Take GGACCUGAACAAUAAGGUUTT against Tagap: the z-score is inactive: 0.00221.

On to GGAGAUCCGAGUGAGGAAUTT against Eif3s9, for which the z-score is inactive: -3.31.

In the case of GCGUAUUUGGUGUUAAAAATT against Iars, the z-score was inactive: -2.7.

GGCUAACCACCCUCUUUCUTT against Rtn4rl1: the z-score is inactive: -0.509.

On to CCUUAUUUGGAUAUGCAGUTT against F2rl3, for which the z-score is inactive: 0.247.

Take GCUCCUCUGUAUAAAUUUUTT against Zfp512: the z-score is inactive: 1.33.

Regarding GGCUCACACUGGCUGAAGATT against H2-M10.4, the z-score was inactive: -0.184.

On to “GGUCUUCCUAUCUAGAACCTT against 4933427L07Rik”, for which the z-score is inactive: 0.573.

Turning to GGGCAAUGAUUUCGCCUUCTT against Ninj1, the z-score was inactive: -0.231.

For the sequence GGUGAUGUCAAGAGUUUUCTT against Ptplb, the z-score is inactive: 1.65.

For GGGACUUUGUAAACAGUUUTT against Peci, the z-score is inactive: -1.27.

As for GGAGAAGAAAAAGAAGGACTT against Pak1, the z-score was inactive: -0.724.

Regarding GGAAGGACUUAAACUUCAUTT against Csf2ra, the z-score is inactive: 0.367.

As to GCGGAUGAUCAAGAAUCGATT against Crebl1, the z-score was inactive: 0.0752.

Regarding GGUACUAUGGUUAAGCAGUTT against Dnd1, the z-score is inactive: 1.06.

For “GGCCAUGAGAAGAAGAAAGTT against 4933440J22Rik”, the z-score was inactive: 0.354.

For the sequence GGCAGAAAUCAAUGACUUGTT against Map2k7, the z-score is inactive: -1.05.

In the case of GGAGUGACCACAACAAUUGTT against Slc39a12, the z-score was inactive: -1.62.

For “CCUCGUCGAGUGGAAAAUUTT against C130099A20Rik”, the z-score was inactive: -2.62.

With GGAAUCGAAACCAAUGUGUTT against Il1rl2, the z-score is inactive: 0.631.

GGUACCCACCUUCGCUUAUTT against Ferd3l: the z-score is inactive: 0.482.

With CGAUGAAUCAGAUUACUUUTT against Trip4, the z-score is inactive: -0.492.

Turning to GGUCAAUGUUUUAGUCAUATT against Olfr1138, the z-score was inactive: 1.82.

For “GCCAUGCUAAUCAAGACGGTT against 1700012P16Rik”, the z-score was inactive: 1.06.
